No constants are given. Whether binding was seen depends on the method and setting. In cells and extracts the contact can be indirect. For some assays here: Binding calls can cover weak binding; strength is not graded here.

Chains of the proteins cited; added tags and fusions are not shown. Lines headed by an entry give the natural chain unless they say otherwise; changes in a name come on top.
UniProt Q4QFZ0: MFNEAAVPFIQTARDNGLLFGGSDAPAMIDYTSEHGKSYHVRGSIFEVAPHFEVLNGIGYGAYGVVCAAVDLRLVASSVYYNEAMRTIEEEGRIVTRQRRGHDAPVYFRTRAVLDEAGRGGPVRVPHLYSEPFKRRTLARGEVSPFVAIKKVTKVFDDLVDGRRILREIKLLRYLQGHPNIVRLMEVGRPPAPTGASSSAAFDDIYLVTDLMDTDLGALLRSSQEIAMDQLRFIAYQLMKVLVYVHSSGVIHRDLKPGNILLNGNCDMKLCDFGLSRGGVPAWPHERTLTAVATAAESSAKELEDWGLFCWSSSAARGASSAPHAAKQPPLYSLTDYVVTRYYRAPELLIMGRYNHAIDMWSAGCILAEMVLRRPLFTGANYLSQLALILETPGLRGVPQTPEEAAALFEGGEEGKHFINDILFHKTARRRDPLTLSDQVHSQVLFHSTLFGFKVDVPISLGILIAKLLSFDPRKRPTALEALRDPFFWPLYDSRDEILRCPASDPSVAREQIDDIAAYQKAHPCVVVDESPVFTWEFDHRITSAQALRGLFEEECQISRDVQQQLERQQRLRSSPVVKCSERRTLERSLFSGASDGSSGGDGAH
UniProt E9AEY0: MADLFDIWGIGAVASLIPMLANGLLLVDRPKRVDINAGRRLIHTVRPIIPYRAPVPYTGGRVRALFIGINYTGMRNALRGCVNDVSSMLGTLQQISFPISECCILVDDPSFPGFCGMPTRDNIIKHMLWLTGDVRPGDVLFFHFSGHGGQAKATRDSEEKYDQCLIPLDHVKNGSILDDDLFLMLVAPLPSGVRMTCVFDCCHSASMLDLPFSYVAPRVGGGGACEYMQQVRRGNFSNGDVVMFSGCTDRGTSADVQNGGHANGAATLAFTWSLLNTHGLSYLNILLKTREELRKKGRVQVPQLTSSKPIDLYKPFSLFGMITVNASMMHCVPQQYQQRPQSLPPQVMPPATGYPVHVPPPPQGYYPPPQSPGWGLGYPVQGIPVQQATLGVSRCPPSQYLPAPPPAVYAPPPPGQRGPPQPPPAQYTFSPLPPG

From PMC4632311 come the findings set out here.

In assay [1] the target is GFP-tagged L. major MPK7 (GFP-MPK7) (L. major) (UniProt Q4QFZ0). Put plainly: pull-down; GFP-MPK7 isolated from crude L. major lysates with magnetic beads carrying anti-GFP antibody (uMACS GFP Isolation Kit), 1 h at 4 C; blot with anti-MCA; logarithmic cultures untreated or treated 4 h with 40 uM miltefosine.
The target is the same in assay [2]. Description: condition: only cells in autophagic conditions (day 5 stationary phase); pull-down; as a4, but parasites in autophagic conditions (legend: day 5 stationary phase).

On to “LmjMCA (endogenous) (from UniProt E9AEY0) (enzyme)”, for which the binding result in assay [1] is recorded as “binds”; in assay [2], “no binding”.
